According to article PMC7069958, “Multi-level and lineage-specific interactomes of the Hox transcription factor Ubx contribute to its functional specificity”:
Results are given in words; binding and its absence hold for the method and conditions named. A result given as binding can be weak or reduced; the word gives no strength. Sequences can lack the tags named with a protein. Blank lines part the entries; values can stand above or below the binder they belong to.

Biological target: GST-Ubx^N51A (Drosophila)
Experiment: pull-down; GST or GST-Ubx fusion proteins in equal amounts with His-purified proteins; affinity buffer (20 mM HEPES, 10 uM ZnCl2, 0.1% Triton, 2 mM EDTA) with NaCl, 1 mM DTT, 0.1 mM PMSF; 2 h at 4 °C; western blot; both purified

- binding: binds
B1: myc-Exd, His-purified (protein, UniProt P40427 1-376)
chain: MEDPNRMLAHTGGMMAPQGYGLSGQDDGQNAGSENEVRKQKDIGEILQQIMSISEQSLDEAQARKHTLNCHRMKPALFSVLCEIKEKTVLSIRNTQEEEPPDPQLMRLDNMLIAEGVAGPEKGGGGAAAASAAAASQGGSLSIDGADNAIEHSDYRAKLAQIRQIYHQELEKYEQACNEFTTHVMNLLREQSRTRPITPKEIERMVQIIHKKFSSIQMQLKQSTCEAVMILRSRFLDARRKRRNFSKQASEILNEYFYSHLSNPYPSEEAKEELARKCGITVSQVSNWFGNKRIRYKKNIGKAQEEANLYAAKKAAGASPYSMAGPPSGTTTPMMSPAPPQDSMGYPMGSGGYDQQQPYDNSMGGYDPNLHQDLSP

- binding: binds
B2: V5-Tin, His-purified (protein, UniProt P22711 1-416)
chain: MLQHHQQQAQSGGYYDHYTQSPSPGSLTNADALNTTPFSVKDILNMVNQTEAYEGSYGHIDGAATASALFAAGEYQNPHQYLNHQQHQQSELPIPQQQLHHQHLDDGATTSSSLSPLLPPPPHQLYGGYQDYGMPAHMFQHHHGHPHQSFQHSASAYNMSASQFYAGASATAYQTPATYNYNYAGSGEVYGGATPSAVGIKSEYIPTPYVTPSPTLDLNSSAEVDSLQAPTQKLCVNPLSQRLMETASNSSSLRSIYGSDEGAKKKDNSQVTSSRSELRKNSISGNSNPGSNSGSTKPRMKRKPRVLFSQAQVLELECRFRLKKYLTGAEREIIAQKLNLSATQVKIWFQNRRYKSKRGDIDCEGIAKHLKLKSEPLDSPTSLPPPIPNHVMWPPTMQQSQQQQQHHAQQQQMQHM
